From US20240327517A1
No constants are given. Whether binding was seen depends on the method and setting. Some binding calls cover weakened binding; strength is not graded here.

Chains of the proteins cited; added tags and fusions are not shown. Lines headed by an entry give the natural chain unless they say otherwise; changes in a name come on top. Residues count along the entry.
UniProt P01732: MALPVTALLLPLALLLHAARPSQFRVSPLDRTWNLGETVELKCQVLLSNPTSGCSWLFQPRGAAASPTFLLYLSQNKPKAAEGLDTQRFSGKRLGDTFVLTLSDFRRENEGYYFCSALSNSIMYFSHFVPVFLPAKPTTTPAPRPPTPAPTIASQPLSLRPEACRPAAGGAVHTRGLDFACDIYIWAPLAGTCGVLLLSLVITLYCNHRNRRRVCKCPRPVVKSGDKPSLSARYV
CD8 on MC38-CD8 transplantation tumors and CD8+ humanized tissues of PBMC humanized mice: residues 22-235 of P01732
CD8α Fc fusion protein: residues 22-182 of P01732

B1: C37H-GSC after TCEP reduction (VHH)
VHH: QVQLVESGGGLVQPGGSLRLSCAASGLTFSDYAIGWFRQAPGKEREGISCIRIYDGNTYYADSVKGRFTISRDNSKNHVYLQMNSLRAEDTAVYYCAAGSYYSCSVYPAYDLDYWGKGTLVTVSS
modifications: C-terminal cysteine freed by TCEP reduction
B2: NODAGA-GSC-C37H single-domain antibody (VHH)
VHH: QVQLVESGGGLVQPGGSLRLSCAASGLTFSDYAIGWFRQAPGKEREGISCIRIYDGNTYYADSVKGRFTISRDNSKNHVYLQMNSLRAEDTAVYYCAAGSYYSCSVYPAYDLDYWGKGTLVTVSS
modifications: Maleimide-NODAGA conjugated to the cysteine at the C-terminus
B3: ^68Ga-NODAGA-GSC-C37H single-domain antibody (VHH)
VHH: QVQLVESGGGLVQPGGSLRLSCAASGLTFSDYAIGWFRQAPGKEREGISCIRIYDGNTYYADSVKGRFTISRDNSKNHVYLQMNSLRAEDTAVYYCAAGSYYSCSVYPAYDLDYWGKGTLVTVSS
modifications: Maleimide-NODAGA on the C-terminal cysteine, chelating 68Ga

Assays:
CD8α Fc fusion protein = CD8α Fc fusion protein (UniProt P01732); test: ELISA on coated CD8α Fc fusion protein
[1] = target: CD8 on MC38-CD8 transplantation tumors and CD8+ humanized tissues of PBMC humanized mice (human) (UniProt P01732); test: in vivo micro-PET in PBMC humanized mice bearing MC38-CD8 tumours; uptake falls with rising total protein dose
[2] = target: CD8 on MC38-CD8 transplantation tumors and CD8+ humanized tissues of PBMC humanized mice (human) (UniProt P01732); test: in vivo and ex vivo biodistribution (PET ROI and γ counter) in PBMC humanized mice bearing MC38-CD8 tumours; uptake falls with rising total protein dose

Binder | binding (CD8α Fc fusion protein) | binding [1] | binding [2]
B1 | binds |  | 
B2 | binds |  | 
B3 |  | binds | binds
